Reference: the supplement of paper PMC10849652
The list shows a part of the results.

By UniProt entry, the sequences of proteins in these tests, tags left out. Where a name states a change or a piece, a line headed by the entry shows the natural chain unless it says otherwise.
UniProt Q9UK76: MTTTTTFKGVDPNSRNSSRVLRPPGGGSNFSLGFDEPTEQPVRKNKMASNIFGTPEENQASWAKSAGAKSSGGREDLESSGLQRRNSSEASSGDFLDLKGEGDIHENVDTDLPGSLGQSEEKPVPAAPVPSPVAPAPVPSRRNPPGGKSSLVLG
UniProt Q15652: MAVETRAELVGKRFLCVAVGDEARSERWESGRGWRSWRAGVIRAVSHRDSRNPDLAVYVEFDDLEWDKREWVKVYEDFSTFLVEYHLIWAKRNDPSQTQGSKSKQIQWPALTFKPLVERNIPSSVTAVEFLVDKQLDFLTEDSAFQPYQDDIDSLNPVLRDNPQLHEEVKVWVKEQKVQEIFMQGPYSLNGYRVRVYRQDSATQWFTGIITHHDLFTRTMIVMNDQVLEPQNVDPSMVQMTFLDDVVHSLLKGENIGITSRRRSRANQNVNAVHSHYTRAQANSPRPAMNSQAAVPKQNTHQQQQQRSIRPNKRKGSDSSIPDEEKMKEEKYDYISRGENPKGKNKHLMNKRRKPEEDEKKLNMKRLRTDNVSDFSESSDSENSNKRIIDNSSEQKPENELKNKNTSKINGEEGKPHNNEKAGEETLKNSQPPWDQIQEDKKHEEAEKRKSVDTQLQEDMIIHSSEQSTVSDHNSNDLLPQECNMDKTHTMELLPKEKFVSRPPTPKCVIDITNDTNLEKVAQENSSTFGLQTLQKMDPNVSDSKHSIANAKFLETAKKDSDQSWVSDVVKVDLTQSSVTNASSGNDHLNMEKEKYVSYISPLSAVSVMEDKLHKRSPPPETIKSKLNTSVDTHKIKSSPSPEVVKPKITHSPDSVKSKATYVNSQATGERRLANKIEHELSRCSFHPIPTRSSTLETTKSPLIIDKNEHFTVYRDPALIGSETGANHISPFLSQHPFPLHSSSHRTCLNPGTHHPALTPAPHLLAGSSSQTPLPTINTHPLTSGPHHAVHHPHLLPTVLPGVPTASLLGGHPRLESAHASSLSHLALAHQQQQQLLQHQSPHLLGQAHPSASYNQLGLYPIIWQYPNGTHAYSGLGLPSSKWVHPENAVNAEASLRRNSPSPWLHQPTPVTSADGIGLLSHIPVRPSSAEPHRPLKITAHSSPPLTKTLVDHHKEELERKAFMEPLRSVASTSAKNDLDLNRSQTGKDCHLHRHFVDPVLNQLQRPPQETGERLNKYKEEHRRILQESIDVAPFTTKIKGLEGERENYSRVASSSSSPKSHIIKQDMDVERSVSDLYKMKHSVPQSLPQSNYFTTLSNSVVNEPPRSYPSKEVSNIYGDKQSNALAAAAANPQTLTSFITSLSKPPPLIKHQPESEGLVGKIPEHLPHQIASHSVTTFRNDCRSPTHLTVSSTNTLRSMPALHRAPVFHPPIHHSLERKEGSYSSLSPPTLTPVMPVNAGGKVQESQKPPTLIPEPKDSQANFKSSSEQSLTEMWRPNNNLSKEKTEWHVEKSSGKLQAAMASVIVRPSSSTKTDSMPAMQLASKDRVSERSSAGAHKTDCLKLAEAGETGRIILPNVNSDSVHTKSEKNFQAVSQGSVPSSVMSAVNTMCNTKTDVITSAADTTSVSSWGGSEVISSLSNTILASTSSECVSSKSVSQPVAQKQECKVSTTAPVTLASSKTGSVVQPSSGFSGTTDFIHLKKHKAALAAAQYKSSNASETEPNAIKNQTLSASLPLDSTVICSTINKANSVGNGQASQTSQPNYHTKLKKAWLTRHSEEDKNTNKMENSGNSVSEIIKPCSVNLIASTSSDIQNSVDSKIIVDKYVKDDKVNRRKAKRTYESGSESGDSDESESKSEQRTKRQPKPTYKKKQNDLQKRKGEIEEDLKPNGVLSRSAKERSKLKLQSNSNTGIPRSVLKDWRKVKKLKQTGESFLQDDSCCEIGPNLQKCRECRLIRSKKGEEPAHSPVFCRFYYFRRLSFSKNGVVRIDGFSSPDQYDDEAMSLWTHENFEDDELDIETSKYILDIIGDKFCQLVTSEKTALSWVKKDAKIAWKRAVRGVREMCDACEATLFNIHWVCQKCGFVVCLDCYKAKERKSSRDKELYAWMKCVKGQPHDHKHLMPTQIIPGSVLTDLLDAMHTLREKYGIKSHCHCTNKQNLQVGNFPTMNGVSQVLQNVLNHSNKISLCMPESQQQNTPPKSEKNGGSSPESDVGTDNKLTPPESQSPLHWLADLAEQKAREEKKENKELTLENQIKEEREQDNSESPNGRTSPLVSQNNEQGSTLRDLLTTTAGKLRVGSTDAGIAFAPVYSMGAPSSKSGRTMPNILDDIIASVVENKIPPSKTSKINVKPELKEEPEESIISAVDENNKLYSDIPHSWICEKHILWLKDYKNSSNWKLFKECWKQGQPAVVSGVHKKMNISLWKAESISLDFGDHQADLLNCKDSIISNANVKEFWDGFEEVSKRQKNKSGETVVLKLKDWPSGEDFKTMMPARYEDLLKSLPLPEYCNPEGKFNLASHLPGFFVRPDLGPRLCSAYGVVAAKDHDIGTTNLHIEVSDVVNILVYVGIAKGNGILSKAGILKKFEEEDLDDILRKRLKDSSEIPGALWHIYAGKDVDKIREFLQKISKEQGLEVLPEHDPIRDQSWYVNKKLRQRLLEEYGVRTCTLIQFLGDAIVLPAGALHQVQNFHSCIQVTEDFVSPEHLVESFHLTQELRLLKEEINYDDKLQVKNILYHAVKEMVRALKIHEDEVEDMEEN
UniProt Q8N5M9: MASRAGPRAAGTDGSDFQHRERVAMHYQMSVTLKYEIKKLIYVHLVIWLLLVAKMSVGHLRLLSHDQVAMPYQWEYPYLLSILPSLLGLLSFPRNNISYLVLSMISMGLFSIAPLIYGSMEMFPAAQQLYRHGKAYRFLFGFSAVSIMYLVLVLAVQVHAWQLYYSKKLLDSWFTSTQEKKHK
UniProt Q9Y597: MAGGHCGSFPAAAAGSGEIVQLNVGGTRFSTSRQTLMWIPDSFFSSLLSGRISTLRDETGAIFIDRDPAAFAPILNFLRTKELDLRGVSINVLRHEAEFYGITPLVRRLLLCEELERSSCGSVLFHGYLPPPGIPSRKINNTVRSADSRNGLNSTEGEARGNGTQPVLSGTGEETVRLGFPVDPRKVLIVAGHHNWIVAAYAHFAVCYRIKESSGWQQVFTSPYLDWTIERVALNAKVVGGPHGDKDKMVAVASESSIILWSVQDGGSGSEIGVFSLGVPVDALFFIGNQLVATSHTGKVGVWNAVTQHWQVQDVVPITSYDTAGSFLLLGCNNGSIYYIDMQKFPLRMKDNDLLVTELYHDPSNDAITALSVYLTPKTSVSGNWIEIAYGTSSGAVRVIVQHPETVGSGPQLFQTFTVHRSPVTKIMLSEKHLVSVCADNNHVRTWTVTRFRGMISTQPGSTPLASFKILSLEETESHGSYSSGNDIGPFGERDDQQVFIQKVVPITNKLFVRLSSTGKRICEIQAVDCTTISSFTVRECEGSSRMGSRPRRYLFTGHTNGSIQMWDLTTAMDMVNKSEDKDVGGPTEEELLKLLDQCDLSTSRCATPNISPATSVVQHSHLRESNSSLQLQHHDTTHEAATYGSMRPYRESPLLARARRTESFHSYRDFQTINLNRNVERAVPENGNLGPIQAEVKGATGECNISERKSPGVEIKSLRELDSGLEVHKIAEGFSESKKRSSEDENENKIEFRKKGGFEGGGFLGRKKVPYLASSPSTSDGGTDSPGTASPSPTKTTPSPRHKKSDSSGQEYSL
UniProt Q96AT1: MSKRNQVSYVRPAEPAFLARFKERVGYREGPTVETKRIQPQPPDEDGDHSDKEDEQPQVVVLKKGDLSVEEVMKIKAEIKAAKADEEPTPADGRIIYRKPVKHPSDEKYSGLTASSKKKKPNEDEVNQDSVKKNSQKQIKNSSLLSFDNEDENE
UniProt Q12840: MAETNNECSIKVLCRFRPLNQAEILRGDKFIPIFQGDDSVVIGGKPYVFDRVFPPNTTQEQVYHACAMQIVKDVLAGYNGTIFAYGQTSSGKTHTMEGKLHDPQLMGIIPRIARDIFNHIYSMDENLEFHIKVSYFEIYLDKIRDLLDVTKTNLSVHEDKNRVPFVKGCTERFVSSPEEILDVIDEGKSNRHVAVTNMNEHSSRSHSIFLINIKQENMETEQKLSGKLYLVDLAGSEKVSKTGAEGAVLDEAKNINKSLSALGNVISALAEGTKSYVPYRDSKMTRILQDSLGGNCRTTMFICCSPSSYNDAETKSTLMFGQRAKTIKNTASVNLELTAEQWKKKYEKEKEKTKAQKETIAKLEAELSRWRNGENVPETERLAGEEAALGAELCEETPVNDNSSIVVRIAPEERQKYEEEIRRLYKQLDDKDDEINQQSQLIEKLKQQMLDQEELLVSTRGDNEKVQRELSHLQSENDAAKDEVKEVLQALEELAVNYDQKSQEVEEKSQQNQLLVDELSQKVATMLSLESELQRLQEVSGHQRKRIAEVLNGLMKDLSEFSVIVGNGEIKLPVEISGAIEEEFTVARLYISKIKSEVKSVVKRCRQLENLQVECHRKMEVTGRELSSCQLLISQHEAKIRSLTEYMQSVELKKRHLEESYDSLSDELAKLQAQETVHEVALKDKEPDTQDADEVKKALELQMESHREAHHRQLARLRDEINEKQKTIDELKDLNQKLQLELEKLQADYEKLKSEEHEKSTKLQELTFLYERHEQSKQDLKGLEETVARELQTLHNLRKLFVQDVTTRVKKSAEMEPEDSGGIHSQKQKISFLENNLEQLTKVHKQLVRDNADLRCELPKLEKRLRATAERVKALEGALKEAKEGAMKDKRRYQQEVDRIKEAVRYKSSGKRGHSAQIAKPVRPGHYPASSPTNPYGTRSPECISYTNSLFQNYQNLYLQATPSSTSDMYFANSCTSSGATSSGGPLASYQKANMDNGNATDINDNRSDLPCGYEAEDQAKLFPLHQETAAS
UniProt Q9Y6Y0: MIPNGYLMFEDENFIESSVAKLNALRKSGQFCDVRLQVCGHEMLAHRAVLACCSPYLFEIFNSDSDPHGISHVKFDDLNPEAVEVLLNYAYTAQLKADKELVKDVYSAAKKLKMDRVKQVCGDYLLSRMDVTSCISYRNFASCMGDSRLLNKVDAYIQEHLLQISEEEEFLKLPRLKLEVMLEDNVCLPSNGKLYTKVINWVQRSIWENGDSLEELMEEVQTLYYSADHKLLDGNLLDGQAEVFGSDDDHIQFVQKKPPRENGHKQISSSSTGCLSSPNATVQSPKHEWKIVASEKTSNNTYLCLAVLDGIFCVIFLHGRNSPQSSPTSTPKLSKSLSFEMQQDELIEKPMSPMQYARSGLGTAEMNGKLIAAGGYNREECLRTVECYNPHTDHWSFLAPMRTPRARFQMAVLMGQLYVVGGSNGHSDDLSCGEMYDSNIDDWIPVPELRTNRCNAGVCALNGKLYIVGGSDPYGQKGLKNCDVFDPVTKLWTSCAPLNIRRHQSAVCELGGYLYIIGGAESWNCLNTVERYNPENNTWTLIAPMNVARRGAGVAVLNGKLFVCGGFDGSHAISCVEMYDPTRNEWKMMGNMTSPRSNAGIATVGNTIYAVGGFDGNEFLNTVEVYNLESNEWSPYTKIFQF
UniProt Q8IZA0: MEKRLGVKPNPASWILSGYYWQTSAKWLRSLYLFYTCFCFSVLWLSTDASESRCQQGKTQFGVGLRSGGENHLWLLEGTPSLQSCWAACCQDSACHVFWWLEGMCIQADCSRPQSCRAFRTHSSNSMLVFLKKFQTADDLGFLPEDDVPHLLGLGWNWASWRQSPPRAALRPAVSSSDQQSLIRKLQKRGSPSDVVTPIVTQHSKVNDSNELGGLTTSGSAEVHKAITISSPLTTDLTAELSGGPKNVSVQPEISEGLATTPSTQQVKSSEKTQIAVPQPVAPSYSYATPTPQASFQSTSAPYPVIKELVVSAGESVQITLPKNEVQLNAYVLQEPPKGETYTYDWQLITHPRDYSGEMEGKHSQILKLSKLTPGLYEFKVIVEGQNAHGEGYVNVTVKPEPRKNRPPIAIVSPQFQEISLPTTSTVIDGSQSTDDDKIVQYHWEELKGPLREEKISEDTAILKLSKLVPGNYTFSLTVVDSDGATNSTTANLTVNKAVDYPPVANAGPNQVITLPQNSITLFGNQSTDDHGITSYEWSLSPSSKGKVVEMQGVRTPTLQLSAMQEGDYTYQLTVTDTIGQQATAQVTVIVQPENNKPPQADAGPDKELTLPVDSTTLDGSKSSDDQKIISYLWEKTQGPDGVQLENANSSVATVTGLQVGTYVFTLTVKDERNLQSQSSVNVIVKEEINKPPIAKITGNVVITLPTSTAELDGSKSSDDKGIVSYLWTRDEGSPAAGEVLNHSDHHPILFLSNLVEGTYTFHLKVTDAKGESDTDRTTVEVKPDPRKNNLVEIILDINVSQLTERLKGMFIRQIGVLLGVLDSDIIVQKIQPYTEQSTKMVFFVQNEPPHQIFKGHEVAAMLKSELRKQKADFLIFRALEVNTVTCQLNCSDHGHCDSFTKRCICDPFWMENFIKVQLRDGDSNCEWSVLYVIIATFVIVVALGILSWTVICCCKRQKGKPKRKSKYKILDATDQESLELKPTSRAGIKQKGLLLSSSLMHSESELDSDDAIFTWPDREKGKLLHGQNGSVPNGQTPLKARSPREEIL

Compound: C1COCCN1CCN2C3=CC=CC=C3N=C2NC(=O)C4=CC(=CC=C4)[N+](=O)[O-] [IRAK-1-4 Inhibitor I]
Test: log2 fold change, soluble protein after heating vs DMSO (PISA); higher = thermal stabilisation; K562 cells, 10 uM, 30 min; active = over 0.2 and 3.5 SD of the protein, either way, in both replicates (recomputed)
In short: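 Soluble protein was defined as the supernatant after 21,000xg for 90 min. It came from K562 cells at 2×10^6 cells/mL given 10 μM compound for 30 min, heated in aliquots for 3 min across 48°C-58°C, pooled, and extracted in PBS with 0.5% NP-40 at 4°C, and was quantified by TMTpro 16plex LC-MS/MS with equalised channel sums. Thermal stability against control samples, from duplicates, is reported as log2 fold change.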

log2 fold change, inactive:
KATNB1 (UniProt Q9BVA0) -0.045
KMT2D isoform 3 (UniProt O14686) -0.048
KCMF1 (UniProt Q9P0J7) -0.01
JPT1 (UniProt Q9UK76) 0.024
JUND (UniProt P17535) -0.047
JMJD1C (UniProt Q15652) -0.014
KDM8 isoform 3 (UniProt Q8N371) 0.005
JAGN1 (UniProt Q8N5M9) -0.155
KIDINS220 (UniProt Q9ULH0) 0.008
KCTD15 (UniProt Q96SI1) 0.015
KCTD3 (UniProt Q9Y597) 0.03
KIAA1143 (UniProt Q96AT1) 0.087
KHK isoform 2 (UniProt P50053) -0.003
KIF23 (UniProt Q02241) 0.163
KIAA1522 isoform 2 (UniProt Q9P206) -0.093
KLF3 (UniProt P57682) -0.015
KIF2A isoform 4 (UniProt O00139) -0.026
KIF5A (UniProt Q12840) 0.014
IVNS1ABP (UniProt Q9Y6Y0) -0.051
KPNA3 (UniProt O00505) 0.016
KIAA0319L (UniProt Q8IZA0) 0.069
KCNAB2 (UniProt Q13303) 0.017

A run of entries from further up, for reference:
log2 fold change, inactive:
KIAA1522 isoform 2 (UniProt Q9P206) -0.093
KLF3 (UniProt P57682) -0.015
